The values that follow come from PMC13116153.

Sequences of proteins named here, by UniProt entry; tags and fusion partners are left off.
UniProt P13864: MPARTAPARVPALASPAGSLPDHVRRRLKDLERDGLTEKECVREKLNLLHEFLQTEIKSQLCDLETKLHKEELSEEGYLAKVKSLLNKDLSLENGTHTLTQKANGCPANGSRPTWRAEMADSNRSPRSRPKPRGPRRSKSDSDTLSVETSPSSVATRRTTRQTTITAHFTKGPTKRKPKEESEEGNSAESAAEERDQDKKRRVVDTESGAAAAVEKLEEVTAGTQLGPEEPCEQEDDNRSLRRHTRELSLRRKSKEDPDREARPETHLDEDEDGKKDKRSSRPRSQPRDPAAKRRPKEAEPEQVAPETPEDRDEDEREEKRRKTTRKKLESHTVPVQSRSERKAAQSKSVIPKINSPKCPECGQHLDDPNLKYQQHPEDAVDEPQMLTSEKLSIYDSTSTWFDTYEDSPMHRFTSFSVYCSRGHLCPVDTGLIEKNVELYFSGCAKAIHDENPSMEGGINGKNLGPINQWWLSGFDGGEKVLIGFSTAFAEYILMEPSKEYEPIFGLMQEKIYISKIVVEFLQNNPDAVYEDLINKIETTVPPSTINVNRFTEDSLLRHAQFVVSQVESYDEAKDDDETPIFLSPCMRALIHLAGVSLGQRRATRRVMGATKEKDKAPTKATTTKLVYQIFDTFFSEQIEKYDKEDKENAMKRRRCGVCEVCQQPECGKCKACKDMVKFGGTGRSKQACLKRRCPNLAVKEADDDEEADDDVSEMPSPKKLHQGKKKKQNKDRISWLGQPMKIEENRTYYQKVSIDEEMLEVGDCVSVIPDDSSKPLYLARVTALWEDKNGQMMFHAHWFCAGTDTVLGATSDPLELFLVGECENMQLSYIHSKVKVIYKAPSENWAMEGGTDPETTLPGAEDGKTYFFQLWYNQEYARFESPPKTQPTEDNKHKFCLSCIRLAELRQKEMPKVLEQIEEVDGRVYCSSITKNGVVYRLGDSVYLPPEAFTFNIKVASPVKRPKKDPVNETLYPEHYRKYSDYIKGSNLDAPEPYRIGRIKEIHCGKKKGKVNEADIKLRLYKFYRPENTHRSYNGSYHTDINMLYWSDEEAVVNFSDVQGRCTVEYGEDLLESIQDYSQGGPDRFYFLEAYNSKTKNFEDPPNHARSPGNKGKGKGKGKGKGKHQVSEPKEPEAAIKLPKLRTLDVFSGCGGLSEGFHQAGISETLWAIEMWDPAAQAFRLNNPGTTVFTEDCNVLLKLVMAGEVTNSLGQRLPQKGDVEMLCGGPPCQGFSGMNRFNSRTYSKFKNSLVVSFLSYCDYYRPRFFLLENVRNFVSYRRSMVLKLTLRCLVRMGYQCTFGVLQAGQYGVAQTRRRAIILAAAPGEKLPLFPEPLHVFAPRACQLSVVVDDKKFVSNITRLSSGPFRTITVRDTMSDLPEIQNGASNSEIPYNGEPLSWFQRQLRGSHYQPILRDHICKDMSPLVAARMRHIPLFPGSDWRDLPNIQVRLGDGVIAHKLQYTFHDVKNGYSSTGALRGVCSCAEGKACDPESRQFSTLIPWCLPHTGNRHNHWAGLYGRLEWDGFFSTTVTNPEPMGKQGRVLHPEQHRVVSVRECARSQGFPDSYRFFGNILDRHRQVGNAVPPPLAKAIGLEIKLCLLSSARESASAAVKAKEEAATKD
UniProt Q9WVE0: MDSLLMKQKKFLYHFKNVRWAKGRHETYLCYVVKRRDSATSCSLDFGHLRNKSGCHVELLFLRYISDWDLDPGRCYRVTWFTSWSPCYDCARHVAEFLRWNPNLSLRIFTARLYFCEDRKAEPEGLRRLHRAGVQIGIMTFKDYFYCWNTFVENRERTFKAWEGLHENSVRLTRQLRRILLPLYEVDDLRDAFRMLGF

These are yes or no findings as the source states them, for the method shown. Binding seen in cells or lysates may run through a third protein.

The target in this experiment is DNMT1 (DNA methyltransferase) (mouse (endogenous in iGB cells)) (UniProt P13864). Description: co-IP; endogenous proteins from iGB cells (day 3 and day 6 cultures) lysed in RIPA buffer (150 mM NaCl, 1.0% IGEPAL, 0.5% sodium deoxycholate, 0.1% SDS, 50 mM Tris, pH 8.0); 3 ug anti-TET2 or anti-DNMT1 antibody overnight at 4 degrees, Protein A/G magnetic beads; immunoblot for AID. For orientation: In western blotting, separated proteins are transferred to a membrane and probed.

Regarding “activation-induced cytidine deaminase (AID), wild type (from UniProt Q9WVE0 1-198) (enzyme)”, the binding result was “no binding”.
